Laboratory results published in paper PMC5237262.
No constants are given. Whether binding was seen depends on the method and setting. Binding seen in cells or lysates may run through a third protein. Some results given as binding are weak or reduced against the parent protein; the word gives no strength. Sequences can lack the tags named with a protein.

By UniProt entry, the sequences of proteins in these tests, tags left out. Where a name states a change or a piece, a line headed by the entry shows the natural chain unless it says otherwise. Chains listed by the source or under a name are the forms on record and can include a tag or linker.
heterogeneous nuclear ribonucleoprotein A2 (hnRNPA2) (P22626-2, form named): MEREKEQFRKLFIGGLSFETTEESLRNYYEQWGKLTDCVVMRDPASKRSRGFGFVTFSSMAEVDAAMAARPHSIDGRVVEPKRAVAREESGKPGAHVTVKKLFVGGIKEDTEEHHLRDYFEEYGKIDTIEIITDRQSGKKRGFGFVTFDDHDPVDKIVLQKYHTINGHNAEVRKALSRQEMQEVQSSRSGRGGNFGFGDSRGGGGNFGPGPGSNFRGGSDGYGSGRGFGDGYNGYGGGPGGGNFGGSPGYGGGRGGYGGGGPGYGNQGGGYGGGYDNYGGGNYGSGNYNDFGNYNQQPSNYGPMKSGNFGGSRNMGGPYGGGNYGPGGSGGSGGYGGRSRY

Biological target: T1, NIMA (never in mitosis gene A)-related kinase 2 (NEK2), tagged with HA and 3xFLAG (human) (UniProt P51955)
T1 sequence: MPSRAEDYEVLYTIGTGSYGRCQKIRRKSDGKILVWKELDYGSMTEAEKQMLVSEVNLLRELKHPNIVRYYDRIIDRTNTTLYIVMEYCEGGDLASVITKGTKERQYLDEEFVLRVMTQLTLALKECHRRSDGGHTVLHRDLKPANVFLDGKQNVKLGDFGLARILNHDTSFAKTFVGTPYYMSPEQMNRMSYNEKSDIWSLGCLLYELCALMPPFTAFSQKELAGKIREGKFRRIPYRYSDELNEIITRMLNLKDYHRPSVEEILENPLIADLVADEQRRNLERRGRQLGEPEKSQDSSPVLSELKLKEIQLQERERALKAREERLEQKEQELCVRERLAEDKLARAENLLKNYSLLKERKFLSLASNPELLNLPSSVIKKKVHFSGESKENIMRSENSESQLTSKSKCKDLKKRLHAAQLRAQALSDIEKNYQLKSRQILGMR
Assay: co-IP; lysate of NEK2 overexpressing ARP1 cells (IP lysis buffer), HA antibody or control IgG overnight at 4 °C, protein A Dynabeads 2 h at 4 °C, three washes with TBST, Western blotting

- binding: binds
Substance: heterogeneous nuclear ribonucleoprotein A2 (hnRNPA2) (from UniProt P22626-2 1-341)
